# Results published in US12582626B2, “Methods and compositions for treating cancer” (The Wistar Institute of Anatomy and Biology, priority 2016, dated 2026).
# For at least one compound, name, drawing or mass did not settle the structure.
# Tested on: vaccine-induced CD8+ T cells
# Experiment: FF treatment of vaccinated donor mice, splenic CD8+ T cells analysed before transfer
# Format: in vivo, mouse
# Experimental: For in vivo treatment, fenofibrate (FF; at 100 mg/kg/day, Sigma) was first diluted in dimethylsulfoxide (DMSO) and then further diluted in PBS and given by oral gavage daily for 3 weeks. Control mice received diluent at the same volume. For adoptive transfer experiments, 1×10^7 in vitro activated CD8^+ T cells transduced with lentivectors or splenocytes from vaccinated mice treated with drugs and containing 5×10^4 Trp-1455 tetramer^+CD8^+ T cells per dose were injected intravenously into recipient mice. For FF/control treated splenocytes or wild type/PPAR-α KO splenocytes co-transfer experiments, splenocytes containing 10^5 Trp-1455 tetramer^+CD8^+ T cells from each group were mixed and transferred into CD90.1^+ recipient mice intravenously.
# To assess how increased FA catabolism affects CD8+TIL functions, we vaccinated CD90.2+ mice congenic for CD45, and treated them for 3 weeks daily with FF (CD45.1 mice) or diluent (CD45.2 mice). Splenocytes from these mice were mixed at a 1:1 ratio of Trp-1-specific CD8+ T cells from the 2 donors and transferred into CD90.1+ recipient mice, which had been challenged with tumor cells and vaccinated 3 days later. Cells were transferred 2 days after vaccination (FIG. 6A).
compound,measurement,setting,value
"CC(C)OC(=O)C(C)(C)Oc1ccc(C(=O)c2ccc(Cl)cc2)cc1 [FF, fenofibrate]",OCR of splenocytes,"FF-treated donors, before transfer",enhanced
same,"expression of CD62L, CD127, KLRG1 and FoxO1","Trp-1- and E7-specific CD8+ T cells of donor mice before transfer, FF 100 mg/kg/day oral, 3 weeks, vs diluent",comparable
same,expression of PD-1 and T-bet,"donor CD8+ T cells before transfer, FF daily 3 weeks vs diluent",increased
same,frequencies or functions of vaccine-induced CD8+ T cells,"donor spleens before transfer, FF daily 3 weeks",does not significantly enhance
